Assay results as given in patent US20160200831A1.
No constants are given. Whether binding was seen depends on the method and setting. Some binding calls cover weakened binding; strength is not graded here.

Protein sequences, listed by entry. Tags and fused reporters are not part of them. Lines headed by an entry give the natural chain unless they say otherwise; changes in a name come on top. Residues count along the entry.
UniProt P00750, residues 36-562: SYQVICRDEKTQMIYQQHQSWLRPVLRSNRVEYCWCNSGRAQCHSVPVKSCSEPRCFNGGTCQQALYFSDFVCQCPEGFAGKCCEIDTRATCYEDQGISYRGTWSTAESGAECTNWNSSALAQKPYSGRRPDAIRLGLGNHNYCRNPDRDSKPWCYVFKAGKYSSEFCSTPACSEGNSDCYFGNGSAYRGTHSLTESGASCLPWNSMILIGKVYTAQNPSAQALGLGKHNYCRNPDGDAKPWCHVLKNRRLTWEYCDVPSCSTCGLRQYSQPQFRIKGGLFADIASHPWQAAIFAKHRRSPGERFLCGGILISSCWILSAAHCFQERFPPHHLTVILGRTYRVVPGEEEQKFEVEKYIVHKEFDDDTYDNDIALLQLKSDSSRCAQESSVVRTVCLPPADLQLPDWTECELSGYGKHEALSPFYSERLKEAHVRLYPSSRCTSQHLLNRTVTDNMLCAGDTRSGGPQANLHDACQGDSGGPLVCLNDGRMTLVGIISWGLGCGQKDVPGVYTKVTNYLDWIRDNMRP
UniProt P05121: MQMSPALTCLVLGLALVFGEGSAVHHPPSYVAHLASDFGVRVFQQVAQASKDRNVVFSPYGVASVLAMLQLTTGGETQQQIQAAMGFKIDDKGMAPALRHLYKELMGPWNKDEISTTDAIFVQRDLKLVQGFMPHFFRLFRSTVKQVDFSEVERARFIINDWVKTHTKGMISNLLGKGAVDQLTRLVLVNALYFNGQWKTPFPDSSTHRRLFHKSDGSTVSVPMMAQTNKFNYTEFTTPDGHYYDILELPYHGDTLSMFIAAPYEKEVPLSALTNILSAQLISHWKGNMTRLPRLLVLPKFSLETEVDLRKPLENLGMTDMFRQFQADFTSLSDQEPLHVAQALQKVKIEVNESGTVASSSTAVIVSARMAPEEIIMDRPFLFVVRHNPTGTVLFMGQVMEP

Biological target: Two-chain tPA (human) (UniProt P00750)
Assay: SDS-PAGE, non-reducing, Coomassie stain, of the PAI-1 + tPA reaction

With “human PAI-1 (from UniProt P05121 24-402)” the binding was “binds”.
